Laboratory results from the supplement of paper PMC8728848.
The list shows a part of the results.

Experiments:
Assay in all cases: glycan array binding signal (z-score within array); higher = stronger binding
Settings in all cases: glycan notation: IUPAC condensed, linker removed
[1] = biological target: Gal(a1-3)Gal(b1-4)GlcNAc(b1-2)Man
Method in brief: (§1)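 Negative Z-scores can be read as non-binding. The Z-score is calculated within each array and then averaged across arrays of one protein sequence at different concentrations or buffers and across linkers. Arrays, 3228 in all, were curated from the Consortium for Functional Glycomics database and kept only where the protein sequence was available.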

[2] = biological target: Gal(a1-3)Gal(b1-4)GlcNAc(b1-2)Man(a1-3)[Gal(a1-3)Gal(b1-4)GlcNAc(b1-2)Man(a1-6)]Man(b1-4)GlcNAc(b1-4)GlcNAc
Method in brief: as §1

[3] = biological target: Gal(a1-3)Gal(b1-4)GlcNAc(b1-3)GalNAc
Method in brief: as §1

[4] = biological target: Gal(a1-3)Gal(b1-4)GlcNAc(b1-6)GalNAc
Method in brief: as §1

[5] = biological target: Gal(a1-3)Gal(b1-4)[Fuc(a1-3)]GlcNAc
Method in brief: as §1

[6] = biological target: Gal(a1-3)Gal(b1-4)[Fuc(a1-3)]GlcNAc(b1-2)Man(a1-3)[Gal(a1-3)Gal(b1-4)[Fuc(a1-3)]GlcNAc(b1-2)Man(a1-6)]Man(b1-4)GlcNAc(b1-4)GlcNAc
Method in brief: as §1

Gal(a1-3)GalNAc = biological target: Gal(a1-3)GalNAc
Method in brief: as §1

[7] = biological target: Gal(a1-3)[Gal(a1-4)]Gal(b1-4)GlcNAc
Method in brief: as §1

[8] = biological target: Gal(a1-4)Gal(b1-3)GlcNAc(b1-2)Man(a1-3)[Gal(a1-4)Gal(b1-3)GlcNAc(b1-2)Man(a1-6)]Man(b1-4)GlcNAc(b1-4)GlcNAc
Method in brief: as §1

Gal(a1-4)Gal(b1-4)Glc = biological target: Gal(a1-4)Gal(b1-4)Glc
Method in brief: as §1

Gal(a1-4)Gal(b1-4)GlcNAc = biological target: Gal(a1-4)Gal(b1-4)GlcNAc
Method in brief: as §1

[9] = biological target: Gal(a1-4)Gal(b1-4)GlcNAc(b1-2)Man(a1-3)[Gal(a1-4)Gal(b1-4)GlcNAc(b1-2)Man(a1-6)]Man(b1-4)GlcNAc(b1-4)GlcNAc
Method in brief: as §1

[10] = biological target: Gal(a1-4)Gal(b1-4)GlcNAc(b1-3)Gal(b1-4)Glc
Method in brief: as §1

Gal(a1-4)GlcNAc = biological target: Gal(a1-4)GlcNAc
Method in brief: as §1

Gal(a1-6)Glc = biological target: Gal(a1-6)Glc
Method in brief: as §1

Gal(b1-2)Gal = biological target: Gal(b1-2)Gal
Method in brief: as §1

Gal(b1-3)Gal = biological target: Gal(b1-3)Gal
Method in brief: as §1

Gal(b1-3)Gal(b1-4)GlcNAc = biological target: Gal(b1-3)Gal(b1-4)GlcNAc
Method in brief: as §1

Gal(b1-3)GalNAc = biological target: Gal(b1-3)GalNAc
Method in brief: as §1

[11] = biological target: Gal(b1-3)GalNAc(a1-3)[Fuc(a1-2)]Gal(b1-4)Glc
Method in brief: as §1

[12] = biological target: Gal(b1-3)GalNAc(a1-3)[Fuc(a1-2)]Gal(b1-4)GlcNAc
Method in brief: as §1

Gal(b1-3)GalNAc(b1-3)Gal = biological target: Gal(b1-3)GalNAc(b1-3)Gal
Method in brief: as §1

[13] = biological target: Gal(b1-3)GalNAc(b1-3)Gal(a1-4)Gal(b1-4)Glc
Method in brief: as §1

[14] = biological target: Gal(b1-3)GalNAc(b1-4)Gal(b1-4)Glc
Method in brief: as §1

[15] = biological target: Gal(b1-3)GalNAc(b1-4)[Neu5Ac(a2-3)]Gal(b1-4)Glc
Method in brief: as §1

Gal(b1-3)GlcNAc = biological target: Gal(b1-3)GlcNAc
Method in brief: as §1

[16] = biological target: Gal(b1-3)GlcNAc(a1-3)Gal(b1-4)GlcNAc
Method in brief: as §1

[17] = biological target: Gal(b1-3)GlcNAc(a1-6)Gal(b1-4)GlcNAc
Method in brief: as §1

Gal(b1-3)GlcNAc(b1-2)Man = biological target: Gal(b1-3)GlcNAc(b1-2)Man
Method in brief: as §1

[18] = biological target: Gal(b1-3)GlcNAc(b1-2)Man(a1-3)[Gal(b1-3)GlcNAc(b1-2)Man(a1-6)]Man(b1-4)GlcNAc(b1-4)GlcNAc
Method in brief: as §1

[19] = biological target: Gal(b1-3)GlcNAc(b1-2)Man(a1-3)[Gal(b1-3)GlcNAc(b1-2)Man(a1-6)]Man(b1-4)GlcNAc(b1-4)[Fuc(a1-6)]GlcNAc
Method in brief: as §1

[20] = biological target: Gal(b1-3)GlcNAc(b1-2)Man(a1-3)[GlcNAc(b1-4)][Gal(b1-3)GlcNAc(b1-2)Man(a1-6)]Man(b1-4)GlcNAc(b1-4)GlcNAc
Method in brief: as §1

[21] = biological target: Gal(b1-3)GlcNAc(b1-2)[Gal(b1-3)GlcNAc(b1-6)]Man(a1-6)[Gal(b1-3)GlcNAc(b1-2)Man(a1-3)]Man(b1-4)GlcNAc(b1-4)GlcNAc
Method in brief: as §1

[22] = biological target: Gal(b1-3)GlcNAc(b1-3)Gal(b1-3)GlcNAc
Method in brief: as §1

[23] = biological target: Gal(b1-3)GlcNAc(b1-3)Gal(b1-4)Glc
Method in brief: as §1

[24] = biological target: Gal(b1-3)GlcNAc(b1-3)Gal(b1-4)GlcNAc
Method in brief: as §1

[25] = biological target: Gal(b1-3)GlcNAc(b1-3)Gal(b1-4)GlcNAc(b1-2)Man(a1-3)[Gal(b1-3)GlcNAc(b1-3)Gal(b1-4)GlcNAc(b1-2)Man(a1-6)]Man(b1-4)GlcNAc(b1-4)GlcNAc
Method in brief: as §1

B1: FimA (Actinomyces oris) (protein)
chain: MHHHHHHSSGVDLGTENLYFQSNAETPNYGNIKTDATGSLVIHKHLTGGGKDIGTPTGTAQNADDKGPAVEGVVFTAYPITDINLKDPAGWDTISNLSRTGVPDSACANPAAPTLGAHQFGTPKVSPATTKEGLATITEMPVQAYLVCETTTPGDIVQKAKPFVVTIPHPNTAAGADGQWIYDVNVYPKNEAIDVDKTIQAQKLNGYGVGSLIKFPVESTAPTLDAKSFYKYFQLKDTLDERLSEVTATDVSLEGTPLQPTDYKVETKQQTVTVTFTAEGLKKIKAAPGKKVSAVFQGKVTKAGNGAITNRAQVISDTLYAEQPPTPETPPTDPENPPTSDEVISRWGDLSIKKVDTHQQGQTKAGLQGAQFQLYKAKNAYANTCSNEKEGAPIAINGQTTLTTDAQGAIDIKGLFISDSIDGADRDNQVNAMERCYVLVETKAPAGYVLPAGNGAATPVKVKAGEETTDNVTVENTKQSVPGLPLTG
For B1, which “glycan array binding signal (z-score)” value [1] is on record?
The value was -0.077.

And the “glycan array binding signal (z-score)” value [2]?
The value was 0.219.

And the “glycan array binding signal (z-score)” value [3]?
The value was -0.405.

What about the “glycan array binding signal (z-score)” value [4] of the same binder?
Its value is -0.507.

And the “glycan array binding signal (z-score)” value [5]?
Its value is -0.304.

What about the “glycan array binding signal (z-score)” value [6] of the same binder?
Its value is -0.26.

What about the “glycan array binding signal (z-score)” value (Gal(a1-3)GalNAc) of the same binder?
Its value is -0.559.

What about the “glycan array binding signal (z-score)” value [7] of the same binder?
The value was 0.017.

And the “glycan array binding signal (z-score)” value [8]?
Its value is -0.768.

What about the “glycan array binding signal (z-score)” value (Gal(a1-4)Gal(b1-4)Glc) of the same binder?
The value was -0.063.

What about the “glycan array binding signal (z-score)” value (Gal(a1-4)Gal(b1-4)GlcNAc) of the same binder?
Its value is 0.225.

And the “glycan array binding signal (z-score)” value [9]?
The value was -0.497.

And the “glycan array binding signal (z-score)” value [10]?
Its value is -0.959.

And the “glycan array binding signal (z-score)” value (Gal(a1-4)GlcNAc)?
Its value is -0.325.

What about the “glycan array binding signal (z-score)” value (Gal(a1-6)Glc) of the same binder?
Its value is -0.367.

And the “glycan array binding signal (z-score)” value (Gal(b1-2)Gal)?
Its value is -0.929.

What about the “glycan array binding signal (z-score)” value (Gal(b1-3)Gal) of the same binder?
The value was -0.761.

What about the “glycan array binding signal (z-score)” value (Gal(b1-3)Gal(b1-4)GlcNAc) of the same binder?
Its value is -0.88.

What about the “glycan array binding signal (z-score)” value (Gal(b1-3)GalNAc) of the same binder?
The value was 0.278.

And the “glycan array binding signal (z-score)” value [11]?
The value was -0.577.

What about the “glycan array binding signal (z-score)” value [12] of the same binder?
Its value is -0.471.

And the “glycan array binding signal (z-score)” value (Gal(b1-3)GalNAc(b1-3)Gal)?
Its value is -0.441.

And the “glycan array binding signal (z-score)” value [13]?
The value was -0.071.

And the “glycan array binding signal (z-score)” value [14]?
The value was 3.27.

And the “glycan array binding signal (z-score)” value [15]?
Its value is -0.784.

What about the “glycan array binding signal (z-score)” value (Gal(b1-3)GlcNAc) of the same binder?
Its value is -0.591.

And the “glycan array binding signal (z-score)” value [16]?
The value was 0.153.

What about the “glycan array binding signal (z-score)” value [17] of the same binder?
The value was -0.165.

What about the “glycan array binding signal (z-score)” value (Gal(b1-3)GlcNAc(b1-2)Man) of the same binder?
Its value is -0.224.

And the “glycan array binding signal (z-score)” value [18]?
The value was -0.222.

And the “glycan array binding signal (z-score)” value [19]?
Its value is 0.3.

And the “glycan array binding signal (z-score)” value [20]?
The value was 0.185.

And the “glycan array binding signal (z-score)” value [21]?
Its value is 0.033.

And the “glycan array binding signal (z-score)” value [22]?
Its value is -0.948.

What about the “glycan array binding signal (z-score)” value [23] of the same binder?
The value was -0.983.

What about the “glycan array binding signal (z-score)” value [24] of the same binder?
The value was -0.749.

What about the “glycan array binding signal (z-score)” value [25] of the same binder?
The value was -0.744.
